Results as given in US20130071417A1 (GOVERNING COUNCIL OF THE UNIVERSITY OF TORONTO, published 2013).
No constants are given. Whether binding was seen depends on the method and setting. Some entries that bind do so weakly or less than the wild type. Where a sequence is shown, tags or fusion partners need not be part of it.

By UniProt entry, the sequences of proteins in these tests, tags left out. Where a name states a change or a piece, a line headed by the entry shows the natural chain unless it says otherwise.
UniProt P06731: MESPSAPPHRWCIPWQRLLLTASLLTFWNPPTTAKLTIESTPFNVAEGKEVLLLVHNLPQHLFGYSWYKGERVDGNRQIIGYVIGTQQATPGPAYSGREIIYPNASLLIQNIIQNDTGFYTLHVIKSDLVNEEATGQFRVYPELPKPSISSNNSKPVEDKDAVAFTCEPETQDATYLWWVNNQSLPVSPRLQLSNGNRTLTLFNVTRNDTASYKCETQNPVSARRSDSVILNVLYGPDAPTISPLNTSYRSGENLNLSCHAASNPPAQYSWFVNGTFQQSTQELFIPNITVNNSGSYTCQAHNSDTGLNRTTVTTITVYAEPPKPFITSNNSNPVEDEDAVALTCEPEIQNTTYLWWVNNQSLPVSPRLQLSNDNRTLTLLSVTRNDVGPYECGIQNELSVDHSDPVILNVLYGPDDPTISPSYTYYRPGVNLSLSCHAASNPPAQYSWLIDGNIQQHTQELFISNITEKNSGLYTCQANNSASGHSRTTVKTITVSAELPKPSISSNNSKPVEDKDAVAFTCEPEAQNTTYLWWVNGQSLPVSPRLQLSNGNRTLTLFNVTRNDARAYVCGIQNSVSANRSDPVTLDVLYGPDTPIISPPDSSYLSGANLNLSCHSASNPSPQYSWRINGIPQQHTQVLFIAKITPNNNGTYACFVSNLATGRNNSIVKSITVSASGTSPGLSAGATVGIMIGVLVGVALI

Target: untagged rCEA N domain (cleaved rCEA N, residues 1-132) (human) (UniProt P06731)
Assay: ELISA; untagged rCEA N coated, His-tagged module in solution, anti-His HRP detection

binding: binds
B1: His-tagged rCEA N domain (protein)
chain: MHHHHHHHHENLYFQKLTIESTPFNVAEGKEVLLLVHNLPQHLFGYSWYKGERVDGNRQIIGYVIGTQQATPGPAYSGREIIYPNASLLIQNIIQNDTGFYTLHVIKSDLVNEEATGQFRVYPELPKPSISSNNSKPVEDKDAVAFT
